Residue numbers refer to the chain shown, from its start. Numbers in names are those of the source. No constants are given. Whether binding was seen depends on the method and setting. In cells and extracts the contact can be indirect. Some results given as binding are weak or reduced against the parent protein; the word gives no strength.

The results in this text go back to PMC3097235.

Test [1] addresses T1, calnexin (human (endogenous in HEK 293)) (UniProt P27824).
T1 sequence: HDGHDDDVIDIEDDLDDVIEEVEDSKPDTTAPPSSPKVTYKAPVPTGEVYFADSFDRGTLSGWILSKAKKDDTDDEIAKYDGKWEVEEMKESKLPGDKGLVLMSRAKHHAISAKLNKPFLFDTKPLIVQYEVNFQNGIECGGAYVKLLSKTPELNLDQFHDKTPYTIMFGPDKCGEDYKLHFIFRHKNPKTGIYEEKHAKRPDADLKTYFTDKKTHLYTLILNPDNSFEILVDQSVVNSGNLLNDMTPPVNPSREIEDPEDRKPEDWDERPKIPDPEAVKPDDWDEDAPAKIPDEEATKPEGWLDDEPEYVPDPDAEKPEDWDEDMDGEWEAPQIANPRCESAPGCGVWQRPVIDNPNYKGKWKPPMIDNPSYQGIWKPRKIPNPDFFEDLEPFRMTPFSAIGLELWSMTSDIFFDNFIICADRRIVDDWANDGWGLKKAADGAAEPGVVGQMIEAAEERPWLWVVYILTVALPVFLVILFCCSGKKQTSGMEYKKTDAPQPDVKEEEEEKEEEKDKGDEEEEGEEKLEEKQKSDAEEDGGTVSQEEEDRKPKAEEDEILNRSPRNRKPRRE
Put plainly: co-IP; HEK 293 cells transfected with tyrosinase constructs, pulsed 20 min with 35S Met/Cys, chased 0, 0.5, 1, 2 h; 2% CHAPS lysates precipitated with anti-calnexin or anti-calreticulin, eluted with 1% SDS, re-precipitated with T311 anti-tyrosinase; SDS-PAGE, autoradiography.

The target of test [2] is calreticulin (human (endogenous in HEK 293)) (UniProt P27797). The description is as above.

B1: wild type human tyrosinase (enzyme, UniProt P14679 19-529)
chain: HFPRACVSSKNLMEKECCPPWSGDRSPCGQLSGRGSCQNILLSNAPLGPQFPFTGVDDRESWPSVFYNRTCQCSGNFMGFNCGNCKFGFWGPNCTERRLLVRRNIFDLSAPEKDKFFAYLTLAKHTISSDYVIPIGTYGQMKNGSTPMFNDINIYDLFVWMHYYVSMDALLGGSEIWRDIDFAHEAPAFLPWHRLFLLRWEQEIQKLTGDENFTIPYWDWRDAEKCDICTDEYMGGQHPTNPNLLSPASFFSSWQIVCSRLEEYNSHQSLCNGTPEGPLRRNPGNHDKSRTPRLPSSADVEFCLSLTQYESGSMDKAANFSFRNTLEGFASPLTGIADASQSSMHNALHIYMNGTMSQVQGSANDPIFLLHHAFVDSIFEQWLRRHRPLQEVYPEANAPIGHNRESYMVPFIPLYRNGDFFISSKDLGYDYSYLQDSDPDSFQDYIKSYLEQASRIWSWLLGAAMVGAVLTALLAGLVSLLCRHKRKQLPEEKQPLLMEKEDYHSLYQSHL
On to B1, for which the binding entry in test [1] and in test [2] was “binds” in each case.

B2: human tyrosinase N-glycosylation mutant Δ1 (N86Q) (enzyme, UniProt P14679 19-529)
chain: B1 chain with N68Q
In the case of B2, the binding result in test [1] was “binds”.

B3: human tyrosinase N-glycosylation mutant Δ7 (N371Q) (enzyme, UniProt P14679 19-529)
chain: B1 chain with N353Q
Regarding B3, the binding result in test [1] and in test [2] was “binds” each time.

B4: human tyrosinase N-glycosylation mutant Δ5 (N290Q) (enzyme, UniProt P14679 19-529)
chain: B1 chain with N272Q
For B4, the binding entry in test [1] and in test [2] was “binds” in each case.

B5: human tyrosinase N-glycosylation mutant Δ6 (N337Q) (enzyme, UniProt P14679 19-529)
chain: B1 chain with N319Q
For the molecule B5, in test [1], the binding result is on record as “binds”.

B6: human tyrosinase N-glycosylation mutant Δ2 (N111Q) (enzyme, UniProt P14679 19-529)
chain: B1 chain with N93Q
Take B6: the binding result in test [1] and in test [2] was “binds” in each case.

B7: human tyrosinase triple N-glycosylation mutant Δ(1,2,3) (N86-N111-N161) (enzyme, UniProt P14679 19-529)
chain: B1 chain with N68Q, N93Q, N143Q
For the molecule B7, the binding result in test [1] is “binds”.

B8: human tyrosinase triple N-glycosylation mutant Δ(5,6,7) (N290-N337-N371) (enzyme, UniProt P14679 19-529)
chain: B1 chain with N272Q, N319Q, N353Q
For the molecule B8, the binding result in test [1] and in test [2] was “binds” in each case.

B9: human tyrosinase N-glycosylation mutant Δ3 (N161Q) (enzyme, UniProt P14679 19-529)
chain: B1 chain with N143Q
Consider B9, for which the binding result in test [1] was “binds”; in test [2], “binds weakly”.

B10: human tyrosinase N-glycosylation mutant Δ4 (N230Q) (enzyme, UniProt P14679 19-529)
chain: B1 chain with N212Q
B10: the binding result is on record as “binds” in test [1] and “binds weakly” in test [2].
